Library screening results

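Viability assay of Plasmodium falciparum sporozoites; the read-out is not stated. The concentration is filed as 10 mM, unlikely as a test dose, so the dose is not known. Direction is inferred from retests: higher values go with lower viability. Strong results were mostly tested again. Size under these conditions: about 34,000 compounds, about 280 of them at 50% or above in at least one test.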

The filed quantity is “Percent Effect” (%). The record does not define 0% and 100%; most values in the screen are far below 50% and negative numbers occur (in some assays of this library far below -100). The compounds are a random part of those screened. Two or more numbers in one place are separate tests of the same structure; such repeats can differ widely.

compound,effect
CCc1nc(C2CCCN2CC(=O)NCCOc2ccccc2)no1 (centres unmarked),0.1306%
O=C1CC(c2ccsc2)c2sc(C(=O)O)c(-c3ccccc3)c2N1 (centres unmarked),9.459%
NC(=O)C1CCN(C(=O)C2SCCc3sccc32)CC1 (centres unmarked),-9.55%
Cc1ccc2c(c1)[C@@H](CC(=O)N1CCN(C)CC1)CCO2,0.5927%
Cn1cc(CCNC(=O)CCc2ccc3c(c2)OCO3)cn1,0.08354%
CN(C)C(=O)c1cncnc1-c1ccc(CNC(=O)C2CCCO2)cc1 (centres unmarked),0.77%
CCn1cc(CN2CCCN(C(=O)Cc3ccc(C)nc3)CC2)cn1,-14.1%
O=C(O)c1ccc2c(c1)C1(CCCCC1)CN2C(=O)c1cccc(F)c1,6.602% and 10.18%
Cc1csc2c(N3CCC(NCCCc4ccncc4)CC3)ncnc12,7.415%
Cn1nnc2c1CCN(CC1CC1)C2COCc1ccccc1.O=C(O)C(F)(F)F (centres unmarked),-7.958%
O=C(CCc1cc(Cl)no1)N1CCC(c2cc3ncccc3cn2)CC1,0.9051%
Cc1noc(C)c1CN(C)C(=O)c1ccc(O)nc1,4.937%
Cc1cnn(CC2CCCCN2Cc2noc(C3CC3)n2)c1 (centres unmarked),-8.079%
O=C(Cc1ccncc1)N1CCC2(CC1)CC(c1ccccc1)CO2.O=C(O)C(F)(F)F (centres unmarked),1.688%
CC(C)c1nc(C2CCCN2C(=O)c2ccc(N(C)C)nn2)no1 (centres unmarked),-2.757%
O=C(Cc1ccsc1)N1CCn2cc(CN3CCCC3)nc2C1,-12.07%
Cl.[H][C@@]12CCN(Cc3cccs3)C[C@]1([H])[C@@H](c1ccsc1)CN2C(=O)C(C)(C)C,-1.649%
Cc1cc(CN(C)C(=O)c2ccc(N(C)C)nc2)no1,3.089%
Cl.Cn1nc(C2CCCN(Cc3cc(F)cc(F)c3)C2)c2nccnc21 (centres unmarked),2.224%
O=C(NCCN1CCCCC1)c1ccoc1,7.289%
[H][C@]12CN(Cc3ccoc3)CCN1C[C@@H](c1ccccc1)[C@@H]2C(=O)NC,-25.07%
COc1ccccc1CN1CCCCC1c1n[nH]cc1-c1cc(C)no1.Cl (centres unmarked),-11.98% and -1.236% and 6.017%
c1cnn(CC2CN(Cc3nc(-c4ccoc4)no3)CCO2)c1 (centres unmarked),0.322%
COc1ccc(-n2cnnc2SCCC#N)cn1,-3.648%
Cc1noc(C)c1CN1CCC2(CC1)C(c1cnn(C)c1)CC(=O)N2C.O=C(O)C(F)(F)F (centres unmarked),9.643%
COCCN(C)CCN1CC2(CCN(C3CCCCC3)CC2)OC1=O,-9.211%
Cc1cccc(CN2CCCCC23CCNC3)n1.O=C(O)C(F)(F)F.O=C(O)C(F)(F)F (centres unmarked),3.415%
Cc1nc(CN2CCC(N(C)Cc3nnc(C4CC4)n3C)C2)cs1 (centres unmarked),3.468%
[H][C@@]12CCN(C(=O)c3c(C)noc3C)C[C@@]1([H])O[C@@H](c1ccnc(C)n1)C2,-9.246%
Cc1nc(Nc2ccccn2)cc(C2CCCN2C2CCOCC2)n1 (centres unmarked),7.258%
O=C(C1CCOCC1)N1CCC2(CC1)CN(c1ccsc1)C(=O)CO2,6.1%
CC[C@@H](Cn1ncc2ccccc2c1=O)NC(=O)c1cnc(C)cn1,2.325%
CCN1CC(COC(=O)c2cc(C)nn2CC)CC1=O (centres unmarked),-5.104%
CCN(CC)C(=O)N1CCN(C2=NCC(C)S2)CC1 (centres unmarked),11.72%
CN(Cc1ccco1)C(=O)CN1C(=O)c2cc(Cl)c(Cl)cc2C1=O,-1.007%
[H][C@]12CC[C@@]3(N=C(c4ccccc4)NC3=O)[C@@]1([H])CN(Cc1ccco1)C2,-6.602%
COCCC1COC2(CCN(C(=O)c3ccsc3)CC2)C1 (centres unmarked),-3.007%
Cn1cc(-c2ncnc3c2CCN(C(=O)c2cnccn2)CC3)cn1,1.491%
COc1ccc(OCc2cc(C(=O)N3C[C@@H](C)O[C@@H](C)C3)n[nH]2)c(Cl)c1,-14.16%
CCN1CCN(c2ccc(CNC(=O)c3c(C)noc3C)cn2)CC1,-4.167%
Cc1cccc(NC(=O)CNC(=O)Cn2ncc(Cl)c(Cl)c2=O)c1C,4.284%
CN1CCN(c2cc(CNC(=O)c3cnccn3)ccn2)CC1,4.701%
CC(=O)c1ccc(C(=O)N2C[C@@H](CN3CCCC3)[C@@H](CO)C2)cc1,-30.42% and -34.56%
N#Cc1cccnc1N1CCC2(CCCN(C3CCOCC3)C2=O)C1 (centres unmarked),-14.87%
CCc1nc(CN2CCN(CC(O)c3ccccc3)CC2)no1 (centres unmarked),4.576% and 5.713% and -3.353%
Cc1cn2c(n1)CCC(NC(=O)c1cncnc1C)C2 (centres unmarked),0.7143%
CN(C)CCN(Cc1ccccn1)Cc1ccnn1C1CCCCO1.O=C(O)CC(O)(CC(=O)O)C(=O)O (centres unmarked),8.266%
O=C(O)C(F)(F)F.O=C(O)C(F)(F)F.[H][C@@]12C[C@@H](OCc3cccnc3)CN1CCN(C(=O)c1cccc(F)c1)C2,-7.036%
COc1ncc(CN2CCOC(C)(C(=O)N3CCOCC3)C2)cn1 (centres unmarked),5.396%
CC(=O)N1CCc2nc(-c3ccccc3)nc(NC(C)C)c2CC1,14.02%
COCc1nc2cc(NCc3csc(C)n3)ccc2o1,12.84%

For reference, 6 entries once more:

| compound | effect |
|---|---|
| `Cc1cccc(CN2CCCCC23CCNC3)n1.O=C(O)C(F)(F)F.O=C(O)C(F)(F)F` (centres unmarked) | 3.415% |
| `CN(C)CCN(Cc1ccccn1)Cc1ccnn1C1CCCCO1.O=C(O)CC(O)(CC(=O)O)C(=O)O` (centres unmarked) | 8.266% |
| `Cc1csc2c(N3CCC(NCCCc4ccncc4)CC3)ncnc12` | 7.415% |
| `c1cnn(CC2CN(Cc3nc(-c4ccoc4)no3)CCO2)c1` (centres unmarked) | 0.322% |
| `Cn1nnc2c1CCN(CC1CC1)C2COCc1ccccc1.O=C(O)C(F)(F)F` (centres unmarked) | -7.958% |
| `CN1CCN(c2cc(CNC(=O)c3cnccn3)ccn2)CC1` | 4.701% |

Source: ChEMBL document CHEMBL3988442, “University of Dundee, Small-Polar-MMV Screening Library” (2021).